Laboratory results: US10357035B2, “Microbiocidal anilide derivatives” (SYNGENTA PARTICIPATIONS AG, priority 2015, dated 2019)
Some of these results come from one statement about several compounds together.

Legend:
[1] = system: Mycosphaerella graminicola (Septoria tritici); test: Mycosphaerella graminicola (Septoria tritici) / liquid culture (Septoria blotch); format: cell-based; settings: 200 ppm in the formulation, inhibition of growth photometrically 4 to 5 days after application
[2] = system: Botryotinia fuckeliana (Botrytis cinerea); test: Botryotinia fuckeliana (Botrytis cinerea) / liquid culture (gray mould); format: cell-based; settings: 200 ppm in the formulation, inhibition of growth photometrically 3-4 days after application
[3] = system: Monocraphella nivalis (Microdochium nivale); test: Monocraphella nivalis (Microdochium nivale) / liquid culture (foot rot cereals); format: cell-based; settings: 200 ppm in the formulation, inhibition of growth photometrically 4-5 days after application
[4] = system: Mycosphaerella arachidis (Cercospora arachidicola); test: Mycosphaerella arachidis (Cercospora arachidicola) / liquid culture (early leaf spot); format: cell-based; settings: 200 ppm in the formulation, inhibition of growth photometrically 4-5 days after application
[5] = system: Glomerella lagenarium (Colletotrichum lagenarium); test: Glomerella lagenarium (Colletotrichum lagenarium) / liquid culture (anthracnose); format: cell-based; settings: 200 ppm in the formulation, inhibition of growth photometrically 3 to 4 days after application
Gaeumannomyces graminis = Gaeumannomyces graminis / liquid culture (take-all of cereals); format: cell-based; settings: 200 ppm in the formulation, inhibition of growth photometrically 4-5 days after application
Alternaria solani = Alternaria solani / tomato / leaf disc (early blight); format: in vivo; settings: 200 ppm in the formulation; tomato leaf disks cv. Baby; compared to untreated control
[6] = system: Thanatephorus cucumeris (Rhizoctonia solani); test: Thanatephorus cucumeris (Rhizoctonia solani) / liquid culture (foot rot, damping-off); format: cell-based; settings: 200 ppm in the formulation, inhibition of growth photometrically 3 to 4 days after application
Pyrenophora teres = Pyrenophora teres / barley / leaf disc preventative (net blotch); format: in vivo; settings: 200 ppm of the formulation; barley leaf segments cv. Hasso; compared to untreated control
[7] = system: Blumeria graminis f. sp. tritici (Erysiphe graminis f. sp. tritici); test: Blumeria graminis f. sp. tritici / wheat / leaf disc preventative (powdery mildew on wheat); format: in vivo; settings: 200 ppm in the formulation; wheat leaf segments cv. Kanzler; compared to untreated control

Measured: disease control

COc1ccnc(C(=O)Nc2ccc(OC3CCCC3)cc2)c1O [I.b.31]
at least 80%: [1] | [2] | [3] | [4] | [5] | Gaeumannomyces graminis

COc1ccnc(C(=O)Nc2ccc(OC3CCCCC3)cc2)c1O [I.b.66, N-[4-(cyclohexoxy)phenyl]-3-hydroxy-4-methoxy-pyridine-2-carboxamide]
not listed: [6] | Pyrenophora teres | [7]
at least 80%: all other assays above

COc1ccnc(C(=O)Nc2ccc(OC3CCCCC3)cc2F)c1O [I.b.68]
at least 80%: [1] | [3] | [5] | Gaeumannomyces graminis

COc1ccnc(C(=O)Nc2ccc(OC3CCCCC3C)cc2F)c1O (centres unmarked) [I.b.73]
at least 80%: [3] | Gaeumannomyces graminis

COc1ccnc(C(=O)Nc2ccc(OC3CCCC(C)C3)cc2F)c1O (centres unmarked) [I.b.78]
at least 80%: [1] | [3]

COc1ccnc(C(=O)Nc2ccc(OC3CC(C)CC(C)(C)C3)cc2F)c1O (centres unmarked) [I.b.123]
at least 80%: [1] | [2] | [3] | [4] | [5] | Gaeumannomyces graminis

COc1ccnc(C(=O)Nc2ccc(OC3CC(C)(C)CC(C)(C)C3)cc2F)c1O [I.b.128]
at least 80%: [1] | [3] | [4] | [5] | Gaeumannomyces graminis | [6]

COc1ccnc(C(=O)Nc2ccc(OC3CCC(C)(C)CC3)cc2F)c1O [I.b.133]
not listed: [6]
at least 80%: all other assays above

COc1ccnc(C(=O)Nc2ccc(OC3CC(C)CCC3C(C)C)cc2)c1O (centres unmarked) [I.b.151]
at least 80%: [1] | [3] | [4] | [5] | Gaeumannomyces graminis

CCC1CCC(Oc2ccc(NC(=O)c3nccc(OC)c3O)cc2)CC1 (centres unmarked) [I.b.166]
at least 80%: [1] | [2] | [3] | [4] | [5] | Gaeumannomyces graminis

COc1ccnc(C(=O)Nc2ccc(OC3CCC(C(C)(C)C)CC3)cc2F)c1O (centres unmarked) [I.b.178]
at least 80%: [1] | [2] | [3] | [4] | [5] | Gaeumannomyces graminis

COc1ccnc(C(=O)Nc2ccc(OC3CCC(C(F)(F)F)CC3)cc2F)c1O (centres unmarked) [I.b.183]
at least 80%: [1] | [2] | [3] | [4] | [5] | Gaeumannomyces graminis

COc1ccnc(C(=O)Nc2ccc(OC3CCC(C4CCCCC4)CC3)cc2F)c1O (centres unmarked) [I.b.188]
at least 80%: [1] | [3] | Gaeumannomyces graminis

COc1ccnc(C(=O)Nc2ccc(OC3CCC4(CCCC4)CC3)cc2)c1O [I.b.201]
at least 80%: [1] | [3] | [4] | Gaeumannomyces graminis

COc1ccnc(C(=O)Nc2ccc(OC3CCC4(CC3)OCCO4)cc2)c1O [I.b.211]
at least 80%: Gaeumannomyces graminis

C=C1CCC(Oc2ccc(NC(=O)c3nccc(OC)c3O)cc2)CC1 [I.b.231]
at least 80%: [1] | [2] | [3] | [4] | [5] | Gaeumannomyces graminis

CON=C1CCC(Oc2ccc(NC(=O)c3nccc(OC)c3O)cc2)CC1 (centres unmarked) [I.b.236]
at least 80%: [1] | [3] | Gaeumannomyces graminis

COc1ccnc(C(=O)Nc2ccc(OC3CCC(=NOC(C)(C)C)CC3)cc2)c1O (centres unmarked) [I.b.241]
at least 80%: [3] | [5] | Gaeumannomyces graminis

C#CCON=C1CCC(Oc2ccc(NC(=O)c3nccc(OC)c3O)cc2)CC1 (centres unmarked) [I.b.246]
at least 80%: [1] | [3] | [5] | Gaeumannomyces graminis

COc1ccnc(C(=O)Nc2ccc(OC3CCC(=CCC(C)C)CC3)cc2)c1O (centres unmarked) [I.b.251]
at least 80%: [1] | [3] | [4] | [5] | Gaeumannomyces graminis

COc1ccnc(C(=O)Nc2ccc(OC3CCC(=Cc4ccccc4)CC3)cc2)c1O (centres unmarked) [I.b.256]
at least 80%: [1] | [2] | [3] | [4] | [5] | Gaeumannomyces graminis

COc1ccnc(C(=O)Nc2ccc(OC3CCCCCCC3)cc2)c1O [I.b.271]
at least 80%: [1] | [2] | [3] | [4] | [5] | Gaeumannomyces graminis

COc1ccnc(C(=O)Nc2ccc(OC3CCCCCCC3OC(=O)C(C)C)cc2F)c1O (centres unmarked) [I.b.283]
at least 80%: [1] | [2] | [3] | [4] | [5] | Gaeumannomyces graminis

COc1ccnc(C(=O)Nc2ccc(OC3CCCC(O)CCC3)cc2F)c1O (centres unmarked) [I.b.288]
at least 80%: [1] | [3] | [5] | Gaeumannomyces graminis

COc1ccnc(C(=O)Nc2ccc(OC3CCCC(OC(C)=O)CCC3)cc2F)c1O (centres unmarked) [I.b.293]
at least 80%: [1] | [2] | [3] | [4] | [5] | Gaeumannomyces graminis

COc1ccnc(C(=O)Nc2ccc(OC3CCCCC3OC(=O)CC(C)C)cc2F)c1OC(C)=O (centres unmarked) [I.c.148]
at least 80%: [1] | [2] | [3] | [4] | [5] | Gaeumannomyces graminis

COc1ccnc(C(=O)Nc2ccc(OC3CCC4(CC3)COC4)cc2F)c1OC(C)=O [I.c.298]
at least 80%: [1] | Pyrenophora teres | [3] | [4] | [5] | Gaeumannomyces graminis
